PubChem BioAssay AID485298 (National Center for Advancing Translational Sciences (NCATS), 2010)
Screen size: about 320,000 compounds; about 740 (0.23%) were called active. Inconclusive means that the source gave no clear call. Such entries were picked first, then a sample of the others. Calls come from the whole dose curve; as a rule, active = well fitted activation curve with a large enough effect; inconclusive = small, poorly fitted or top-dose-only effect; inactive = no such curve, though single readings can be large or run the other way. A potency beside an inconclusive call is a rough fit, not a confirmed value.

Experiment: qHTS Assay for Small Molecule Inhibitors of Mitochondrial Division or Activators of Mitochondrial Fusion; note: nearly all actives have a fitted effect of over 45% in size;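 for growth rescue (activation): temperature-sensitive fusion mutants such as fzo1-1 at 37 °C on non-fermentable ethanol glycerol medium; % of control where 0% means no effect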
Conditions: S. cerevisiae fusion-defective mutant growth rescue, CellTiterGlo 48 h; growth rescue (activation): at 46.1 µM (top of the series) unless noted
Outline: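 Compounds are tested for their ability to restore growth of mitochondrial fusion-defective yeast strains at non-permissive 37C in YPEG medium over 48 hours. Viability is quantified by luciferase luminescence.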
Potency is the fitted concentration of half-maximal effect.

Row | Structure (SMILES) | Potency | growth rescue (activation)
1 | COc1cccc(-c2ncc3ccccc3c2COC(=O)c2cccc(Br)c2)c1 | inconclusive: 25.1 µM [activator, single point] | 
2 | Cc1nc2ccc(S(=O)(=O)Nc3cccc(-c4nc5cccnc5s4)c3C)cc2s1 | active: 17.8 µM | 
3 | CC(=O)N1CCCc2cc(S(=O)(=O)N3CCN(c4ccccn4)CC3)ccc21 |  | inactive: 14.2%
4 | COC(=O)C1=C(N)Oc2cc(C)n(Cc3ccco3)c(=O)c2C1c1cccc(Cl)c1 (configuration not stated) | inconclusive: 12.6 µM [activator, single point] | 
5 | CN(Cc1nc(-c2ccc(Cl)cc2)no1)C(=O)c1ccco1 |  | inactive: 4.29%
6 | N#CCCNS(=O)(=O)c1ccc(C(=O)OCC2CCCCC2)cc1 | inconclusive: 15.8 µM [activator, single point] | 
7 | COc1ccc(NS(=O)(=O)c2cc(Br)cc3c2N(C(C)=O)CC3)cc1 |  | inactive: 6.15%
8 | CCn1ccnc1CN1CCCC(C(=O)c2ccc3c4c(cccc24)CC3)C1 (configuration not stated) | inconclusive: 14.1 µM [activator, single point] | 
9 | Cc1ccc(N2C(=O)N3[C@H](c4cccc(C)c4)[C@@H]4C(=O)N(Cc5ccccc5)C(=O)[C@@H]4[C@]3(C)C2=O)cc1 | inconclusive: 3.55 µM [activator, single point] | 
10 | Oc1[nH]c2ccccc2c1N=Nc1c(F)c(F)c(Cl)c(F)c1F | inconclusive: 1.26 µM [activator, partial curve] | 
11 | Cn1nnc2sc3c(c2c1=O)CCCC3 |  | inactive: 0.426%
12 | Cn1c(=O)c2c(nc(NCC3CCCO3)n2Cc2ccccc2)n(C)c1=O (configuration not stated) |  | inactive: -4.66%
13 | COc1ccccc1/C=C/C(=O)NC(=S)Nc1ccc(S(=O)(=O)N(C)c2ccccc2)cc1 |  | inactive: 0.612%
14 | Cc1cccc(C(=O)O/N=C(/c2ccccc2)c2ccncc2)c1 | inconclusive: 12.6 µM [activator, partial curve] | 
15 | CCOC(=O)c1c(NC(=O)/C=C/c2ccc3c(c2)OCO3)sc(C)c1CC |  | inactive: -4.07%
16 | COc1ccc(C2/C=C\CN(S(=O)(=O)c3ccc(C)cc3)CC(=O)N2Cc2ccc(F)cc2)cc1 (configuration not stated) | inconclusive: 11.2 µM [activator, partial curve] | 
17 | Nc1cccc2nc3ccccc3cc12 |  | inactive: -20.5%
18 | O=C(CC(c1ccccc1)c1ccccc1O)NCc1ccccc1Cl (configuration not stated) | inconclusive: 15.8 µM [activator, partial curve] | 
19 | CC(NC(=O)Cn1ncc(Cl)c(Cl)c1=O)C12CC3CC(CC(C3)C1)C2 (configuration not stated) | inconclusive: 22.4 µM [activator, single point] | 
20 | O=C(Cc1c(O)c2ccccc2[nH]c1=O)NCc1ccccc1F | inconclusive: 3.98 µM [activator, single point] | 
21 | CC(C)(C)c1nnc(NC(=S)Nc2ccccc2)s1 |  | inactive: 4.47%
22 | COc1ccc(CN(C(=O)/C=C/C(=O)c2ccc(OC)cc2O)C(C(=O)NC2CCCCC2)c2ccncc2)cc1 (configuration not stated) | inconclusive: 15.8 µM [activator, partial curve] | 
23 | Cc1ccc(C(=O)C(C)Oc2cccc(NC(=O)c3ccco3)c2)cc1 (configuration not stated) | inconclusive: 35.5 µM [activator, single point] | 
24 | COc1ccccc1NS(=O)(=O)c1ccc(Cl)c(NC(=S)NC(=O)C2CCCC2)c1 | inconclusive: 35.5 µM [activator, single point] | 

Filtered by structure: the compounds so far with bromine (two)
Row | Structure (SMILES) | Potency | growth rescue (activation)
1 | COc1cccc(-c2ncc3ccccc3c2COC(=O)c2cccc(Br)c2)c1 | inconclusive: 25.1 µM [activator, single point] | 
7 | COc1ccc(NS(=O)(=O)c2cc(Br)cc3c2N(C(C)=O)CC3)cc1 |  | inactive: 6.15%

Next part

Row | Structure (SMILES) | Potency | growth rescue (activation)
25 | CC(=O)c1cc(-c2ccc(F)cc2)n(CCC(=O)Nc2cccnc2)c1C | inconclusive: 0.316 µM [activator, full curve] | 
26 | Cc1cc(S(=O)(=O)Nc2ccc3cn[nH]c3c2)c(C)cc1Cl | active: 11.2 µM | 
27 | O=C(Nc1ccccc1O)c1c(O)c2c([nH]c1=O)CCCC2 | inconclusive: 17.8 µM [activator, single point] | 
28 | O=S(=O)(NC1CCCCC1Nc1ccc(Cl)cc1)c1ccccc1 (configuration not stated) | inconclusive: 17.8 µM [activator, single point] | 
29 | O=C(COC(=O)Cc1cccc2ccccc12)Nc1ccccc1-c1ccccc1 | inconclusive: 15.8 µM [activator, single point] | 
30 | O=S(=O)(Nc1cccc(-c2nc3cccnc3s2)c1)c1ccc2c(c1)CCCC2 | inconclusive: 22.4 µM [activator, single point] | 
31 | O=C(/C=C/c1cccc(F)c1)N1CCc2ccccc21 |  | inactive: 4.96%
32 | Cn1c2ccccc2c(=O)c2cc(C#Cc3cccc(N)c3)ccc21 | inconclusive: 14.1 µM [activator, single point] | 
33 | CCCCCC(O)(c1ccccc1)C(CN1CCOCC1)c1ccccc1 (configuration not stated) |  | inactive: 7.07%
34 | COc1ccc(C2C(O)C(c3c[nH]c4ccccc34)=NN2C(=O)CCl)cc1 (configuration not stated) |  | inactive: -4.12%
35 | Cc1ccc(Cl)cc1N1CCN(C(=O)c2cccc3c(=O)c(C)c(-c4ccccc4)oc23)CC1 | inconclusive: 10 µM [activator, partial curve] | 
36 | CC1=C(C(N)=O)C(c2ccccn2)n2nc(SCc3ccccc3Cl)nc2N1 (configuration not stated) |  | inactive: 0.463%
37 | Cc1ccc(C(=O)N/N=C/C2=Cc3ccccc3OC2C)cc1 (configuration not stated) | inconclusive: 31.6 µM [activator, single point] | 
38 | S=C(S)OC1CC2CC1C1CCCC21 (configuration not stated) | active: 18.4 µM | 
39 | CC1CC(C)CN(C(=O)c2cccc(S(=O)(=O)Nc3cc(C(F)(F)F)ccc3Cl)c2)C1 (configuration not stated) | active: 15.8 µM | 
40 | CC(C)CNC(=S)N1CCN(C(c2ccccc2)c2ccccc2)CC1 | inconclusive: 25.1 µM [activator, single point] | 
41 | CCN(Cc1cc(=O)n2ccsc2n1)c1cccc2ccccc12 | inconclusive: 3.55 µM [activator, single point] | 
42 | Cc1cc(Oc2ccc(C#N)cc2)nc(NCc2ccccc2)n1 |  | inactive: 12.3%
43 | O=C(c1ccccc1[N+](=O)[O-])N1N=C(c2ccccc2)CC1(O)C(F)(F)F (configuration not stated) |  | inactive: -7.05%
44 | CCOC(=O)c1c(C)[nH]c(C)c1C(=O)COC(=O)c1cccc(C)c1O | inconclusive: 15.8 µM [activator, single point] | 
45 | Cc1cc2ncn(-c3ncnc4sc(C)c(C)c34)c2cc1C |  | inactive: 3.48%
46 | O=C(NCCN1C(=O)S/C(=C\c2ccc(Cl)cc2)C1=O)c1ccc(F)c(S(=O)(=O)N2CCOCC2)c1 |  | inactive: -1.32%
47 | Cc1ccccc1N1CCN(c2ccc(NC(=O)C3CCCCC3C(=O)O)cc2)CC1 (configuration not stated) | inconclusive: 15.8 µM [activator, partial curve] | 
